Here are results for five substances from paper doi:10.1101/2020.05.07.057075.

Amino acid sequences for entries named in this document (tags omitted). A change or cut given only in a name is not applied to a line headed by its entry. Chains listed by the source or under a name are the forms on record and can include a tag or linker. Residues count along the entry.
UniProt P06748: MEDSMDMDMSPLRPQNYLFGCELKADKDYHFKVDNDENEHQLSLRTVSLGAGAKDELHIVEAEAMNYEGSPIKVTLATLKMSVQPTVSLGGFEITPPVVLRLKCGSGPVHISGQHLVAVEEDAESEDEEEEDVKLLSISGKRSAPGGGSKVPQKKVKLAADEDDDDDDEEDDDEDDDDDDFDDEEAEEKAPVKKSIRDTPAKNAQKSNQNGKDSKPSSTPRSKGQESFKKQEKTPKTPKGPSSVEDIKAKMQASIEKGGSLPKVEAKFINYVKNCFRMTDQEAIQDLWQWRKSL
NPM oligomerization domain NPM(1-130), His-tagged: residues 1-130 of P06748
UniProt P99999: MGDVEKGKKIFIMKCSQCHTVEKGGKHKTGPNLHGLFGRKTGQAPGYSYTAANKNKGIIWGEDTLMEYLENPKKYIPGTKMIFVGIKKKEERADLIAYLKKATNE

Results are given in words; binding and its absence hold for the method and conditions named. For some of these results: In cells and extracts the contact can be indirect. Some entries that bind do so weakly or less than the wild type.

Assay [1] deals with full length NPM ahead of the N-end fragment of YFP (UniProt P06748). Description: split reporter.
The target in assay [2] is cytochrome c (Cc), recombinant, purified (UniProt P99999). Put plainly: NMR titration.
Assay [3] addresses NPM oligomerization domain core NPM(9-122) (UniProt P06748). Description: crystal structure.
The target is the same in assay [4]. Description: negative-stain electron microscopy with 3D reconstruction.
For assay [5] the target is unchanged. Description: SPR. Background: SPR reads the build-up and loss of mass on a sensor chip optically.
Assay [6] concerns the target full-length nucleophosmin NPM(1-294), recombinant (UniProt P06748). Put plainly: SPR.
The target of assay [7] is NPM oligomerization domain NPM(1-130), His-tagged (UniProt P06748). Description: native gel or EMSA.
Assay [8] shares this target. Put plainly: NMR titration.
The target in assay [9] is endogenous cytochrome c of HeLa cells (human (endogenous in HeLa)) (UniProt P99999). Description: co-IP.

For the substance “Cc fused to the C-end domain of the yellow fluorescent protein (from UniProt P99999 1-105)”, the binding result in assay [1] is recorded as “binds”.
Consider “NPM oligomerization domain core NPM(9-122) (from UniProt P06748 9-122) (domain or fragment)”, for which the binding result in [2] is on record as “binds”.
As for “cytochrome c (Cc), recombinant, purified (from UniProt P99999 2-105)”, the binding entry in assay [3], in assay [4], in assay [5], in [6], in [7] and in assay [8] was “binds” each time.
In the case of “endogenous nucleophosmin of HeLa cells (from UniProt P06748 1-294)”, the binding result in [9] is “binds”.
As to “full-length nucleophosmin NPM(1-294), recombinant (from UniProt P06748 1-294)”, in [2], the binding entry is “binds”.
